Test results published in patent publication US20040044006A1, “Methods of use of quinolone compounds against pneumococcal and haemophilus bacteria” (priority 1999, published 2004).
At least one read-out could not be matched to a standard name with certainty.

Test system: penicillin susceptible and resistant pneumococcal strains (2 quinolone resistant)
Assay: Time-kill testing of 12 pneumococcal strains
Format: cell-based, Streptococcus pneumoniae
Settings: of 12 strains (macrolides 7)
Summary of the method: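 Pneumococci at 5×10^5–5×10^6 cfu/ml were exposed to doubling antibiotic concentrations in cation-adjusted Mueller-Hinton broth + 5% lysed horse blood at 35 °C with shaking. Viable counts (detection limit 300 cfu/ml) were taken at 0, 3, 6, 12 and 24 h.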

## C[C@@H]1CN(c2c(F)c(N)c3c(=O)c(C(=O)O)cn(C4CC4)c3c2F)C[C@H](C)N1 [Sparfloxacin, sparfloxacin]
3 h, 0.25 × MIC
  No. strains −1 Log10 cfu/ml lower than 0 h: 0 No. strains
  No. strains −2 Log10 cfu/ml lower than 0 h: 0 No. strains
  No. strains −3 Log10 cfu/ml lower than 0 h: 0 No. strains
3 h, 0.5 × MIC
  No. strains −1 Log10 cfu/ml lower than 0 h: 1 No. strains
  No. strains −2 Log10 cfu/ml lower than 0 h: 0 No. strains
  No. strains −3 Log10 cfu/ml lower than 0 h: 0 No. strains
3 h, 2 × MIC
  No. strains −1 Log10 cfu/ml lower than 0 h: 8 No. strains
  No. strains −2 Log10 cfu/ml lower than 0 h: 1 No. strains
  No. strains −3 Log10 cfu/ml lower than 0 h: 0 No. strains
3 h, 4 × MIC
  No. strains −1 Log10 cfu/ml lower than 0 h: 9 No. strains
  No. strains −2 Log10 cfu/ml lower than 0 h: 1 No. strains
  No. strains −3 Log10 cfu/ml lower than 0 h: 0 No. strains
3 h, 8 × MIC
  No. strains −1 Log10 cfu/ml lower than 0 h: 10 No. strains
  No. strains −2 Log10 cfu/ml lower than 0 h: 2 No. strains
  No. strains −3 Log10 cfu/ml lower than 0 h: 0 No. strains
3 h, MIC
  No. strains −1 Log10 cfu/ml lower than 0 h: 4 No. strains
  No. strains −2 Log10 cfu/ml lower than 0 h: 0 No. strains
  No. strains −3 Log10 cfu/ml lower than 0 h: 0 No. strains
6 h, 0.25 × MIC
  No. strains −1 Log10 cfu/ml lower than 0 h: 0 No. strains
  No. strains −2 Log10 cfu/ml lower than 0 h: 0 No. strains
  No. strains −3 Log10 cfu/ml lower than 0 h: 0 No. strains
6 h, 0.5 × MIC
  No. strains −1 Log10 cfu/ml lower than 0 h: 5 No. strains
  No. strains −2 Log10 cfu/ml lower than 0 h: 1 No. strains
  No. strains −3 Log10 cfu/ml lower than 0 h: 0 No. strains
6 h, 2 × MIC
  No. strains −1 Log10 cfu/ml lower than 0 h: 12 No. strains
  No. strains −2 Log10 cfu/ml lower than 0 h: 4 No. strains
  No. strains −3 Log10 cfu/ml lower than 0 h: 0 No. strains
6 h, 4 × MIC
  No. strains −1 Log10 cfu/ml lower than 0 h: 12 No. strains
  No. strains −2 Log10 cfu/ml lower than 0 h: 8 No. strains
  No. strains −3 Log10 cfu/ml lower than 0 h: 0 No. strains
6 h, 8 × MIC
  No. strains −1 Log10 cfu/ml lower than 0 h: 12 No. strains
  No. strains −2 Log10 cfu/ml lower than 0 h: 9 No. strains
  No. strains −3 Log10 cfu/ml lower than 0 h: 4 No. strains
6 h, MIC
  No. strains −1 Log10 cfu/ml lower than 0 h: 8 No. strains
  No. strains −2 Log10 cfu/ml lower than 0 h: 2 No. strains
  No. strains −3 Log10 cfu/ml lower than 0 h: 0 No. strains
12 h, 0.25 × MIC
  No. strains −1 Log10 cfu/ml lower than 0 h: 0 No. strains
  No. strains −2 Log10 cfu/ml lower than 0 h: 0 No. strains
  No. strains −3 Log10 cfu/ml lower than 0 h: 0 No. strains
12 h, 0.5 × MIC
  No. strains −1 Log10 cfu/ml lower than 0 h: 4 No. strains
  No. strains −2 Log10 cfu/ml lower than 0 h: 0 No. strains
  No. strains −3 Log10 cfu/ml lower than 0 h: 0 No. strains
12 h, 2 × MIC
  No. strains −1 Log10 cfu/ml lower than 0 h: 12 No. strains
  No. strains −2 Log10 cfu/ml lower than 0 h: 10 No. strains
  No. strains −3 Log10 cfu/ml lower than 0 h: 5 No. strains
12 h, 4 × MIC
  No. strains −1 Log10 cfu/ml lower than 0 h: 12 No. strains
  No. strains −2 Log10 cfu/ml lower than 0 h: 11 No. strains
  No. strains −3 Log10 cfu/ml lower than 0 h: 8 No. strains
12 h, 8 × MIC
  No. strains −1 Log10 cfu/ml lower than 0 h: 12 No. strains
  No. strains −2 Log10 cfu/ml lower than 0 h: 12 No. strains
  No. strains −3 Log10 cfu/ml lower than 0 h: 9 No. strains
12 h, MIC
  No. strains −1 Log10 cfu/ml lower than 0 h: 11 No. strains
  No. strains −2 Log10 cfu/ml lower than 0 h: 9 No. strains
  No. strains −3 Log10 cfu/ml lower than 0 h: 4 No. strains
24 h, 0.25 × MIC
  No. strains −1 Log10 cfu/ml lower than 0 h: 1 No. strains
  No. strains −2 Log10 cfu/ml lower than 0 h: 1 No. strains
  No. strains −3 Log10 cfu/ml lower than 0 h: 1 No. strains
24 h, 0.5 × MIC
  No. strains −1 Log10 cfu/ml lower than 0 h: 6 No. strains
  No. strains −2 Log10 cfu/ml lower than 0 h: 4 No. strains
  No. strains −3 Log10 cfu/ml lower than 0 h: 1 No. strains
24 h, 2 × MIC
  No. strains −1 Log10 cfu/ml lower than 0 h: 12 No. strains
  No. strains −2 Log10 cfu/ml lower than 0 h: 12 No. strains
  No. strains −3 Log10 cfu/ml lower than 0 h: 12 No. strains
24 h, 4 × MIC
  No. strains −1 Log10 cfu/ml lower than 0 h: 12 No. strains
  No. strains −2 Log10 cfu/ml lower than 0 h: 12 No. strains
  No. strains −3 Log10 cfu/ml lower than 0 h: 12 No. strains
24 h, 8 × MIC
  No. strains −1 Log10 cfu/ml lower than 0 h: 12 No. strains
  No. strains −2 Log10 cfu/ml lower than 0 h: 12 No. strains
  No. strains −3 Log10 cfu/ml lower than 0 h: 12 No. strains
24 h, MIC
  No. strains −1 Log10 cfu/ml lower than 0 h: 11 No. strains
  No. strains −2 Log10 cfu/ml lower than 0 h: 11 No. strains
  No. strains −3 Log10 cfu/ml lower than 0 h: 10 No. strains
